According to patent US20070134261A1, “Effectors of innate immunity” (priority 2001, published 2007):
At least one peptide structure holds a part that was inferred or is arguable (an end, a ring closure or a residue). No end group written: not given here.

Type: cell-based
Details: overnight, 96-well plate

KSRIVPAIPVSLL [SEQ ID NO: 7]
>: MIC, C. rhod. (Citobacter rhodensis) | MIC, EHEC (Enterohaemorrhagic E. coli) | MIC, E. coli (Escherichia coli) | MIC, P. aerug. (Pseudomonas aeruginosa) | MIC, S. typhim. (Salmonella enteritidis ssp. typhimurium)
